PubChem BioAssay AID504774 | Drosophila RNAi Screening Center, 2011

- Aim: 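Knock-downs that shift viability of MMS-exposed cells relative to untreated ones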 (primary screen)
- Cell system: Drosophila Kc167 cells
- Reagent: long dsRNA against Drosophila genes, about 0.25 µg dsRNA per well
- Duration: about 6 days: 3 days knock-down, then 3 days with or without MMS
- Treatment: methyl methanesulphonate 0.004% (w/v) for 3 days after knock-down
- Read-out: 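ATP-dependent luminescence as a measure of live cells in MMS-exposed wells, quantile normalised within each plate, with replicate values also given as a mean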
- Scale: mean viability with MMS: higher = more surviving cells after MMS
The screen tested about 23,000 reagents; shown is an unselected part of those that have a named target and a result. 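Values are quantile-normalised luminescence on an arbitrary scale; higher means more cells surviving MMS.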 A plus sign joins genes that one reagent is predicted to hit. Not all columns of the deposit are shown.

mean viability with MMS, by target and reagent
prim (GeneID 36814): DRSC06575 3.78e6
pon (GeneID 31394): DRSC18823 3.55e6
PsGEF (retired record) (GeneID 31225): DRSC18600 3.54e6; DRSC18601 3.30e6
CG14990 (GeneID 38486): DRSC08449 3.45e6
SrpRalpha (GeneID 47251): DRSC20251 3.50e6
CG43325 (GeneID 246515): DRSC04157 3.67e6
Hug (GeneID 41547): DRSC16969 3.55e6
CG31668 (GeneID 33395): DRSC22584 3.64e6
CG7896 (GeneID 43552): DRSC16335 3.65e6
CG31029 (GeneID 318562): DRSC15422 3.28e6
CG32708 (GeneID 318161): DRSC18411 3.48e6
CG14082 (GeneID 40088): DRSC10086 3.76e6
CG11674 (GeneID 32374): DRSC19414 3.62e6
CG2278 (GeneID 31751): DRSC18226 3.67e6
polyph (GeneID 36161): DRSC06254 3.38e6
sowah (GeneID 39438): DRSC09186 3.30e6; DRSC09758 3.52e6
Coa7 (GeneID 3355158): DRSC20967 3.34e6
CG33090 (GeneID 34835): DRSC01908 3.46e6
Trpgamma (GeneID 34991): DRSC03626 3.52e6
snsl (GeneID 33696): DRSC00543 3.52e6
dpa (GeneID 35679): DRSC07604 3.58e6
CG10477 (GeneID 38679): DRSC09732 3.54e6
Nha2 (GeneID 42710): DRSC14689 3.77e6; DRSC15619 3.23e6; DRSC15623 3.77e6
Trs20 (GeneID 39769): DRSC10489 3.64e6
Arp8 (GeneID 32769): DRSC20059 3.95e6
CG2747 (GeneID 40950): DRSC15450 3.43e6
salt (GeneID 43742): DRSC15427 3.50e6
IP3K1 (GeneID 34300): DRSC02734 3.97e6
CG12024 (GeneID 38243): DRSC08229 3.56e6
CG5556 (GeneID 33320): DRSC00687 3.59e6
CG30369 (GeneID 246572): DRSC21996 3.69e6
CG5004 (GeneID 32698): DRSC19929 3.48e6; DRSC19930 3.42e6; DRSC20123 3.23e6
yellow-f (GeneID 41595): DRSC15348 3.37e6
CG5877 (GeneID 32455): DRSC19963 3.49e6
GILT3 (GeneID 42787): DRSC14672 3.43e6
lncRNA:CR31526 (GeneID 318783): DRSC21520 3.68e6
Vha26 (GeneID 40679): DRSC12371 3.47e6
CG10674 (GeneID 38602): DRSC09775 3.86e6
CG14456 (GeneID 40481): DRSC11713 3.41e6
fs(1)K10 (GeneID 47781): DRSC18775 3.45e6
CG31802 (GeneID 318949): DRSC02459 3.43e6
CG9117 (GeneID 33846): DRSC03141 3.43e6
CG9813 (GeneID 41644): DRSC16569 3.46e6
Trm7-34 (GeneID 42508): DRSC16171 3.46e6
Lcch3 (GeneID 32554): DRSC20257 3.54e6; DRSC22175 3.64e6
rnh1 (GeneID 35746): DRSC07673 3.48e6
Arv1 (GeneID 318031): DRSC11491 3.53e6
CG9498 (GeneID 33885): DRSC03235 3.49e6
kn (GeneID 45318): DRSC05505 3.63e6; DRSC05507 3.74e6; DRSC06196 3.43e6; DRSC07637 3.48e6; DRSC21533 3.59e6
Argl + CG9515: DRSC03243 3.59e6; DRSC03245 3.64e6
Sf3b6 (GeneID 38720): DRSC09972 3.19e6
CG31612 (GeneID 35427): DRSC03697 3.70e6; DRSC03698 3.56e6
CR42546 (GeneID 8674079): DRSC03711 3.54e6
SdhAL (GeneID 39348): DRSC10539 3.61e6
ckd (GeneID 38402): DRSC08418 3.60e6

Single entries from the entries so far:
Under “mean viability with MMS”, kn (GeneID 45318) [DRSC05507] is entered as 3.74e6
IP3K1 (GeneID 34300) [DRSC02734], mean viability with MMS → 3.97e6
Under “mean viability with MMS”, kn (GeneID 45318) [DRSC21533] is entered as 3.59e6
Under “mean viability with MMS”, Arv1 (GeneID 318031) [DRSC11491] reads 3.53e6
